Some of the results follow.

The chains behind the UniProt entries cited, without tags or fusion partners. Where a name states a change or a piece, a line headed by the entry shows the natural chain unless it says otherwise.
UniProt Q86X95: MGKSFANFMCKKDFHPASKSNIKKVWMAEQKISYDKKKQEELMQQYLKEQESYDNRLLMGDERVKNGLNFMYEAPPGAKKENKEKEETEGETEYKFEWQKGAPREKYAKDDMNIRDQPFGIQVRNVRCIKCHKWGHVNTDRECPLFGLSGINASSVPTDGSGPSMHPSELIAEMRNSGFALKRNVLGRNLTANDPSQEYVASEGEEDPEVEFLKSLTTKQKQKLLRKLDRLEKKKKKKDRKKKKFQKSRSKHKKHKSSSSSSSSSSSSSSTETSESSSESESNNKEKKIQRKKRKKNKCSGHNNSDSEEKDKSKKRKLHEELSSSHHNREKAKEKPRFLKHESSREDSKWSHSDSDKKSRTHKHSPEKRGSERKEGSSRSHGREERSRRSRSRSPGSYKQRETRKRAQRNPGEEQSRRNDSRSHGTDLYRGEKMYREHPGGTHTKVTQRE
UniProt Q9BSY4: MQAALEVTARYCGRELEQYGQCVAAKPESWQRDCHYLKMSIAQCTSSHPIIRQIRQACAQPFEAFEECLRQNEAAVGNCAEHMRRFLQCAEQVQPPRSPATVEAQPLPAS
UniProt O94985: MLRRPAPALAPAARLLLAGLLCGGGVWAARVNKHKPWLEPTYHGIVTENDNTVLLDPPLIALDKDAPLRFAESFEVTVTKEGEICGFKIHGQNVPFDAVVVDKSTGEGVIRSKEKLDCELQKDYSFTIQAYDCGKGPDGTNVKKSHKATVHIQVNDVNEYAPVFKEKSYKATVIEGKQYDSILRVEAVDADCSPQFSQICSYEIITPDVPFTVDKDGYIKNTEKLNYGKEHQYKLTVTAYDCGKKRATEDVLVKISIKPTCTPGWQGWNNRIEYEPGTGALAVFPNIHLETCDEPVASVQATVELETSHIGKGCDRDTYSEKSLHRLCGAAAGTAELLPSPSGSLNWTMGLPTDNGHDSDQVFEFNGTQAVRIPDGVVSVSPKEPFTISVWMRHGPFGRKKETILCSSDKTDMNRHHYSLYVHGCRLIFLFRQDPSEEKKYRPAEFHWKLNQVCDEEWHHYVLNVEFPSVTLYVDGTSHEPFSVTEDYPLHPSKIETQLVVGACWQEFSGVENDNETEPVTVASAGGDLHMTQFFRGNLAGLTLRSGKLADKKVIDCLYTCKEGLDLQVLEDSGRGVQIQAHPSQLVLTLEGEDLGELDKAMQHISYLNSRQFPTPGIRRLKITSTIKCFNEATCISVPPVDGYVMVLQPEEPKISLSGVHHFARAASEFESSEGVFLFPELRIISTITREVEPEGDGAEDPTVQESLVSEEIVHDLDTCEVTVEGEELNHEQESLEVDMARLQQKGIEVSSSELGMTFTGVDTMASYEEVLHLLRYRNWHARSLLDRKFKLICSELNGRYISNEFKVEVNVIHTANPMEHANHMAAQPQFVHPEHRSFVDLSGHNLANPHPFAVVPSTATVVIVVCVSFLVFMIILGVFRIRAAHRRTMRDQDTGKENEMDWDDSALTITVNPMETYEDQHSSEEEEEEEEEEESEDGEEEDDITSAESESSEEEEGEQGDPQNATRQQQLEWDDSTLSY
UniProt Q9BUK0: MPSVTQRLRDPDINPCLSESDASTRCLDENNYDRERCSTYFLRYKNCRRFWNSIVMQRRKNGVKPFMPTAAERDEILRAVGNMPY
UniProt Q9UBR5: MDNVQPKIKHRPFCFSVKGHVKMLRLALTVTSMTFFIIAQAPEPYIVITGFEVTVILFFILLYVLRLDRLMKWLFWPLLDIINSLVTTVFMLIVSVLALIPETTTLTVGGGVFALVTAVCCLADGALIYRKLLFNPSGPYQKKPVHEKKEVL
UniProt Q8TD26: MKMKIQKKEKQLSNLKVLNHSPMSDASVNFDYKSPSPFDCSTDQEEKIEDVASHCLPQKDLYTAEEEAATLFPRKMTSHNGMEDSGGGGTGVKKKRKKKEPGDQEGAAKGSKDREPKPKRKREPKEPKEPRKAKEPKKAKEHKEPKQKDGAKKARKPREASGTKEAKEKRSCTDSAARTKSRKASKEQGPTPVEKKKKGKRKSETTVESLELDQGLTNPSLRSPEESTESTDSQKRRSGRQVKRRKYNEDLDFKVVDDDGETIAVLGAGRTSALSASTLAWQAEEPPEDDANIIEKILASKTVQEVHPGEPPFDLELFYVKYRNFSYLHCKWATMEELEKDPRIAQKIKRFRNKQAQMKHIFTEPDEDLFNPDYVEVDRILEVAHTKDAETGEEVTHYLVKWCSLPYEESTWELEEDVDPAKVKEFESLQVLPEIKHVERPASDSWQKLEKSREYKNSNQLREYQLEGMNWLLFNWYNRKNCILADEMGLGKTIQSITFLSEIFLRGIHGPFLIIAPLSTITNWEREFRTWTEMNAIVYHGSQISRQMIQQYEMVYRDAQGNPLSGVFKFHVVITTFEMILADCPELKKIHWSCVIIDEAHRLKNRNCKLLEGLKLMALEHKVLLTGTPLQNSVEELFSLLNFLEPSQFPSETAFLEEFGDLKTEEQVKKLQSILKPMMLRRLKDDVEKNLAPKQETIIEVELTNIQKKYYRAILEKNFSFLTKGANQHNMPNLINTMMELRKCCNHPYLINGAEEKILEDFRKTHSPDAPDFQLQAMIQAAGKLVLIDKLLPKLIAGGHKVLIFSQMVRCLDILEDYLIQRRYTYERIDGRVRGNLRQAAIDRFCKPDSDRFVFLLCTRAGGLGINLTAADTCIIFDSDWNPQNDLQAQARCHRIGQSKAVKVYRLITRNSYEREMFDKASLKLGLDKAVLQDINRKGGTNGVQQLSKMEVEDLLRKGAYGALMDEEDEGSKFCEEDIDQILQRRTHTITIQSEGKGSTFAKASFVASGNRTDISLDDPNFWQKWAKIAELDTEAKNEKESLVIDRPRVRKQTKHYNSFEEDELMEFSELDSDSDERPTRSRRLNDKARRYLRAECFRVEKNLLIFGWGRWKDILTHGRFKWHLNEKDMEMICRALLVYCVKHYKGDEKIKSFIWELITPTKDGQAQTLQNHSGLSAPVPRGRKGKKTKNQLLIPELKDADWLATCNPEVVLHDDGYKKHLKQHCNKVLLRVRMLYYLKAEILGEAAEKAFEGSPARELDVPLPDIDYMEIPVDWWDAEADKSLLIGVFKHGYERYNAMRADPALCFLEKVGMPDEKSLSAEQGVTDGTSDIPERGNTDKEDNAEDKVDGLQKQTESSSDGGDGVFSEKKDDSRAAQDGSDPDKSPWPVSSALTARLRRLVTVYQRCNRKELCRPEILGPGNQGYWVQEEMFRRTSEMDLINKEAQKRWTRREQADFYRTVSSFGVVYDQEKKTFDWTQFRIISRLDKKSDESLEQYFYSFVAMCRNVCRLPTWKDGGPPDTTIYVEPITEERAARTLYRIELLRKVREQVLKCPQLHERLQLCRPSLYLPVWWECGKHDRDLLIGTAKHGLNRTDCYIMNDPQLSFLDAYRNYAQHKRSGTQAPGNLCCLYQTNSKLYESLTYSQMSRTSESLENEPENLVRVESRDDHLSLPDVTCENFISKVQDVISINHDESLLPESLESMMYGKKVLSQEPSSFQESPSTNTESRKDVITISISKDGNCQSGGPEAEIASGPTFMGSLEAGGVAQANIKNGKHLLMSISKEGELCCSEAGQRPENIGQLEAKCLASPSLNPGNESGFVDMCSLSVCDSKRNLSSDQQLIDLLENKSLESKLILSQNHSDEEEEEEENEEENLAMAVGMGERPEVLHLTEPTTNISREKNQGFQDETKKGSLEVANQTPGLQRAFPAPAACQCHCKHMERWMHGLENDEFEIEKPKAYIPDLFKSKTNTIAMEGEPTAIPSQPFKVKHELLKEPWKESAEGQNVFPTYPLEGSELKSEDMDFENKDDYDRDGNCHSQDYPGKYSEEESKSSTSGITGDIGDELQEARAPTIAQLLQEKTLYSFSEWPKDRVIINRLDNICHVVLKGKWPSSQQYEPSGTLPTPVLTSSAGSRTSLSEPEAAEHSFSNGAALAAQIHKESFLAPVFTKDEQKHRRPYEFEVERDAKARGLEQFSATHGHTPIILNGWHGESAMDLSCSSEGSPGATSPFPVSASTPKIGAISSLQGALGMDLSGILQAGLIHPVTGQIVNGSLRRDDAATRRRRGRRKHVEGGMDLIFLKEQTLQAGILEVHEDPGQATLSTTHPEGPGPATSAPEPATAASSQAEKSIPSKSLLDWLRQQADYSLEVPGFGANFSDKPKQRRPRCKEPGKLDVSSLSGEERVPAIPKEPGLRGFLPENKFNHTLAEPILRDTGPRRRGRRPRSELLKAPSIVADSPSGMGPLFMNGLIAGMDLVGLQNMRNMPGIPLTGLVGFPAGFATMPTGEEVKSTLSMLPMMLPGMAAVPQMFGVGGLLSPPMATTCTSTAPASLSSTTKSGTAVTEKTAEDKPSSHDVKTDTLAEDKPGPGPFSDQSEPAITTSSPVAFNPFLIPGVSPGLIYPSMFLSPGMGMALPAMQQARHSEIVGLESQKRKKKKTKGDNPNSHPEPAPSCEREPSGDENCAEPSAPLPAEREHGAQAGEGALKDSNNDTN
UniProt Q07065: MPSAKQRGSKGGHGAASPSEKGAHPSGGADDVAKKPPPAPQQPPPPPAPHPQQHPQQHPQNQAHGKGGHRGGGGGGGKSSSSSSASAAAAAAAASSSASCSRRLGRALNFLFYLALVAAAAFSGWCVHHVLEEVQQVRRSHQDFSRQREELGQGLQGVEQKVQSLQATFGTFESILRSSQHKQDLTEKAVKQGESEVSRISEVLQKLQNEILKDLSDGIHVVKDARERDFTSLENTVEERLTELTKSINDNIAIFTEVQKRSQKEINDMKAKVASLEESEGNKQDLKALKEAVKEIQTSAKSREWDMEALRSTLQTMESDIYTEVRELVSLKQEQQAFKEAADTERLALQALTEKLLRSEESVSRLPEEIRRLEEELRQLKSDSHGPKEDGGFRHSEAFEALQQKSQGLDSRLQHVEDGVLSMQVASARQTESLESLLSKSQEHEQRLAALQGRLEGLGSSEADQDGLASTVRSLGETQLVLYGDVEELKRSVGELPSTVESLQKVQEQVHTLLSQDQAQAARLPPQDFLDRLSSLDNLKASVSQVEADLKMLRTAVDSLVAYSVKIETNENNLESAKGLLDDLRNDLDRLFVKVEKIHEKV
UniProt P49760, whole entry, looked up: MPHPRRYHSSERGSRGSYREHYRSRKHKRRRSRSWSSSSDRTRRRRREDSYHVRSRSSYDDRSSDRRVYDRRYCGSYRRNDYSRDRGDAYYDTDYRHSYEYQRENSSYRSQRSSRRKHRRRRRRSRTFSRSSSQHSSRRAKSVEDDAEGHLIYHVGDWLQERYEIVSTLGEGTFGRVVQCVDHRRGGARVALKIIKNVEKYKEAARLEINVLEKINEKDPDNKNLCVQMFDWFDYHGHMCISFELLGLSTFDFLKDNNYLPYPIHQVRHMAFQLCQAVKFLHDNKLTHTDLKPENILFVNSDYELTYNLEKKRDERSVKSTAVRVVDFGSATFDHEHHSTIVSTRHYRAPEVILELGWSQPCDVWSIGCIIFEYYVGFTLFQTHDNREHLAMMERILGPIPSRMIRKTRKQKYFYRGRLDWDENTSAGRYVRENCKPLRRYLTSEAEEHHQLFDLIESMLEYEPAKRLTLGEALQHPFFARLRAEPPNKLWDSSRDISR
UniProt Q9Y4C5: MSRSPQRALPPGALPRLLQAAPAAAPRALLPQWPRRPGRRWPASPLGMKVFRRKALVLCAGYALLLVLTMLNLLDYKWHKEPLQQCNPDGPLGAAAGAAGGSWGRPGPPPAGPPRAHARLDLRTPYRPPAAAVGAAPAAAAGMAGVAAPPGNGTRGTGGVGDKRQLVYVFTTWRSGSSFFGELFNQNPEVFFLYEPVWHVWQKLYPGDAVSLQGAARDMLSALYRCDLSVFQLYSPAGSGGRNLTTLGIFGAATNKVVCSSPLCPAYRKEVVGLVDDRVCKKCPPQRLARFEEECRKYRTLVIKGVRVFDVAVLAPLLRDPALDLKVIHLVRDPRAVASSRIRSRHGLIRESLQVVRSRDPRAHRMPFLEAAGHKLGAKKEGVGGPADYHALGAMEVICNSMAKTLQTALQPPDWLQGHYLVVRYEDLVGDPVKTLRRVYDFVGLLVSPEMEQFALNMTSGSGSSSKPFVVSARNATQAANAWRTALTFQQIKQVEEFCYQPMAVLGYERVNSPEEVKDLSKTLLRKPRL
UniProt Q15846: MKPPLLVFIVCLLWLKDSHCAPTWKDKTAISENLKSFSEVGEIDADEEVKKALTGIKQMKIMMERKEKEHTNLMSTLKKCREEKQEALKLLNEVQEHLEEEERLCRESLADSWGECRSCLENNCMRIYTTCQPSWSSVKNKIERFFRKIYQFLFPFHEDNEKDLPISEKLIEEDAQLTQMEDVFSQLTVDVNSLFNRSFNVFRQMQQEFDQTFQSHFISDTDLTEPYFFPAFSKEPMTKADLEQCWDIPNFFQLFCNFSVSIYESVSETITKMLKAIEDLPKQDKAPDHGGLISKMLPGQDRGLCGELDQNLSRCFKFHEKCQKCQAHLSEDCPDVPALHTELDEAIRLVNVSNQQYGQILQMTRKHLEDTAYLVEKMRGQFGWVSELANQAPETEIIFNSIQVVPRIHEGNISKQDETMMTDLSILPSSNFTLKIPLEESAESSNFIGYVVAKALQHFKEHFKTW

Compound in the first assay: CC1=C(C=C(C=C1)NC(=O)C2=CC(=CC=C2)N(C)C)NC(=O)C3=CC=C(C=C3)O
Put plainly: log2 fold change, soluble protein after heating vs DMSO (PISA); higher = thermal stabilisation; K562 lysate, 10 uM; active = over 0.2 and 3.5 SD of the protein, either way, in both replicates (recomputed). The method, boiled down:
(§1)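 Log-two fold change in thermal stability relative to solvent controls is reported from duplicates. For each sample, crude K562 extract from dounce-homogenised pellets in PBS pH 7.4 with 1 mM MgCl2, at 1 mg/mL protein, was treated with 10 μM compound for 30 min. Aliquots heated for 3 min across 48°C-58°C were pooled, brought to 0.5% NP-40 at 4°C and cleared at 21,000xg for 90 min. The supernatant was quantified by TMTpro 16plex LC-MS/MS with channel sums equalised.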
As for CINP isoform 3 (UniProt Q9BW66), the log2 fold change is inactive: 0.009.

As for CHPT1 (UniProt Q8WUD6), the log2 fold change was inactive: 0.127.

Consider CLIP1, A0A3B3ITA2, for which the log2 fold change is inactive: -0.215.

As for CIR1 (UniProt Q86X95), the log2 fold change is inactive: 0.067.

Take CHD2 (UniProt O14647): the log2 fold change is inactive: 0.081.

Take CHTF18 (UniProt Q8WVB6): the log2 fold change was inactive: 0.079.

CHCHD5 (UniProt Q9BSY4): the log2 fold change is inactive: -0.029.

Take CLASP2 (UniProt O75122): the log2 fold change was inactive: 0.001.

For CHD4, A0A2R8Y521, the log2 fold change was inactive: 0.228.

For CLCN5 isoform 2 (UniProt P51795), the log2 fold change was inactive: -0.117.

For CLSTN1 (UniProt O94985), the log2 fold change was inactive: -0.345.

CMTR2 (UniProt Q8IYT2): the log2 fold change was inactive: -0.007.

For the target CHMP4A (UniProt H0YIN6), the log2 fold change was inactive: 0.15.

As to CLYBL (UniProt Q8N0X4), the log2 fold change is inactive: -0.086.

As to CHCHD7 isoform 4 (UniProt Q9BUK0), the log2 fold change is inactive: 0.024.

In the case of CLSTN3 isoform 2 (UniProt Q9BQT9), the log2 fold change was inactive: -0.041.

For the target CKLF (UniProt Q9UBR5), the log2 fold change is inactive: -0.04.

CHD6 (UniProt Q8TD26): the log2 fold change is inactive: 0.115.

Compound in another assay: CC1=CC=C(C=C1)SC2=C3C=C(SC3=CN=C2)C(=O)N
Described as above. In outline: as §1
CINP isoform 3 (UniProt Q9BW66): the log2 fold change was inactive: -0.005.

With CKMT2 (UniProt D6RHV3), the log2 fold change was inactive: -0.009.

As for CMC4 (UniProt P56277), the log2 fold change is inactive: -0.028.

As for CIR1 (UniProt Q86X95), the log2 fold change is inactive: -0.01.

As for CHD2 (UniProt O14647), the log2 fold change was inactive: -0.086.

With CHTF18 (UniProt Q8WVB6), the log2 fold change was inactive: -0.108.

For the target CLEC11A (UniProt Q9Y240), the log2 fold change is inactive: 0.189.

With CKAP4 (UniProt Q07065), the log2 fold change is inactive: 0.025.

For the target CLASP2 (UniProt O75122), the log2 fold change was inactive: -0.028.

For the target CHD4, A0A2R8Y521, the log2 fold change was inactive: 0.314.

Regarding CLCN5 isoform 2 (UniProt P51795), the log2 fold change is inactive: -0.165.

Turning to CLSTN1 (UniProt O94985), the log2 fold change was inactive: 0.046.

Turning to CMTR2 (UniProt Q8IYT2), the log2 fold change is inactive: -0.608.

For the target CHMP4A (UniProt H0YIN6), the log2 fold change was inactive: -0.159.

For the target CLYBL (UniProt Q8N0X4), the log2 fold change was inactive: 0.095.

As for CHCHD7 isoform 4 (UniProt Q9BUK0), the log2 fold change was inactive: -0.061.

Consider CLSTN3 isoform 2 (UniProt Q9BQT9), for which the log2 fold change was inactive: -0.043.

In the case of CKLF (UniProt Q9UBR5), the log2 fold change was inactive: 0.376.

As for CLK2 (UniProt P49760), the log2 fold change was inactive: 0.049.

Take CHST2 (UniProt Q9Y4C5): the log2 fold change is inactive: 0.077.

For the target CLUL1 (UniProt Q15846), the log2 fold change was inactive: -0.006.
